B1: FABP7 isoform 2. Full length: recombinant full-length human FABP7 isoform 2 (SEQ ID NO: 1) produced in E. coli; in b59 "FABP7" refers to PrEST data (protein, listed as Homo sapiens)
chain: MVEAFCATWKLTNSQNFDEYMKALGVGFATRQVGNVTKPTVIISQEGDKVVIRTLSTFKNTEISFQLGEEFDETTADDRNCKSVVSLDGDKLVHIQKWDGKETNFVREIKDGKMVMVSNDNSPFFLVFFSSPHTSHLLPSSSLLLPFFLLPSFFNNTSLARFFNYM
B2: PROK2: recombinant full-length PROK2 (SEQ ID NO: 2) produced in E. coli (protein, listed as Homo sapiens)
chain: MRSLCCAPLLLLLLLPPLLLTPRAGDAAVITGACDKDSQCGGGMCCAVSIWVKSIRICTPMGKLGDSCHPLTRKNNFGNGRQERRKRKRSKRKKEVPFFGRRMHHTCPCLPGLACLRTSFNRFICLAQK
B3: RTN3: recombinant full-length RTN3 (SEQ ID NO: 3) produced in E. coli (protein, listed as Homo sapiens)
chain: MAEPSAATQSHSISSSSFGAEPSAPGGGGSPGACPALGTKSCSSSCADSFVSSSSSQPVSLFSTSQEGLSSLCSDEPSSEIMTSSFLSSSEIHNTGLTILHGEKSHVLGSQPILAKEGKDHLDLLDMKKMEKPQGTSNNVSDSSVSLAAGVHCDRPSIPASFPEHPAFLSKKIGQVEEQIDKETKNPNGVSSREAKTALDADDRFTLLTAQKPPTEYSKVEGIYTYSLSPSKVSGDDVIEKDSPESPFEVIIDKAAFDKEFKDSYKESTDDFGSWSVHTDKESSEDISETNDKLFPLRNKEAGRYPMSALLSRQFSHTNAALEEVSRCVNDMHNFTNEILTWDLVPQVKQQTDKSSDCITKTTGLDMSEYNSEIPVVNLKTSTHQKTPVCSIDGSTPITKSTGDWAEASLQQENAITGKPVPDSLNSTKEFSIKGVQGNMQKQDDTLAELPGSPPEKCDSLGSGVATVKVVLPDDHLKDEMDWQSSALGEITEADSSGESDDTVIEDITADTSFENNKIQAEKPVSIPSAVVKTGEREIKEIPSCEREEKTSKNFEELVSDSELHQDQPDILGRSPASEAACSKVPDTNVSLEDVSEVAPEKPITTENPKLPSTVSPNVFNETEFSLNVTTSAYLESLHGKNVKHIDDSSPEDLIAAFTETRDKGIVDSERNAFKAISEKMTDFKTTPPVEVLHENESGGSEIKDIGSKYSEQSKETNGSEPLGVFPTQGTPVASLDLEQEQLTIKALKELGERQVEKSTSAQRDAELPSEEVLKQTFTFAPESWPQRSYDILERNVKNGSDLGISQKPITIRETTRVDAVSSLSKTELVKKHVLARLLTDFSVHDLIFWRDVKKTGFVFGTTLIMLLSLAAFSVISVVSYLILALLSVTISFRIYKSVIQAVQKSEEGHPFKAYLDVDITLSSEAFHNYMNAAMVHINRALKLIIRLFLVEDLVDSLKLAVFMWLMTYVGAVFNGITLLILAELLIFSVPIVYEKYKTQIDHYVGIARDQTKSIVEKIQAKLPGIAKKKAE
B4: SNAP91: recombinant full-length SNAP91 (SEQ ID NO: 4) produced in E. coli (protein, listed as Homo sapiens)
chain: MSGQTLTDRIAAAQYSVTGSAVARAVCKATTHEVMGPKKKHLDYLIQATNETNVNIPQMADTLFERATNSSWVVVFKALVTTHHLMVHGNERFIQYLASRNTLFNLSNFLDKSGSHGYDMSTFIRRYSRYLNEKAFSYRQMAFDFARVKKGADGVMRTMAPEKLLKSMPILQGQIDALLEFDVHPNELTNGVINAAFMLLFKDLIKLFACYNDGVINLLEKFFEMKKGQCKDALEIYKRFLTRMTRVSEFLKVAEQVGIDKGDIPDLTQAPSSLMETLEQHLNTLEGKKPGNNEGSGAPSPLSKSSPATTVTSPNSTPAKTIDTSPPVDLFATASAAVPVSTSKPSSDLLDLQPDFSSGGAAAAAAPAPPPPAGGATAWGDLLGEDSLAALSSVPSEAQISDPFAPEPTPPTTTAEIATASASASTTTTVTAVTAEVDLFGDAFAASPGEAPAASEGAAAPATPTPVAAALDACSGNDPFAPSEGSAEAAPELDLFAMKPPETSVPVVTPTASTAPPVPATAPSPAPAVAAAAAATTAATAAATTTTTTSAATATTAPPALDIFGDLFESTPEVAAAPKPDAAPSIDLFSTDAFSSPPQGASPVPESSLTADLLSVDAFAAPSPATTASPAKVDSSGVIDLFGDAFGSSASEPQPASQAASSSSASADLLAGFGGSFMAPSPSPVTPAQNNLLQPNFEAAFGTTPSTSSSSSFDPSVFDGLGDLLMPTMAPAGQPAPVSMVPPSPAMAASKALGSDLDSSLASLVGNLGISGTTTKKGDLQWNAGEKKLTGGANWQPKVAPATWSAGVPPSAPLQGAVPPTSSVPPVAGAPSVGQPGAGFGMPPAGTGMPMMPQQPVMFAQPMMRPPFGAAAVPGTQLSPSPTPASQSPKKPPAKDPLADLNIKDFL

system: T-cells in PBMCs from MS patients and healthy controls; assay: FluoroSpot with full-length recombinant antigens (52 patients, 24 controls), with ROC analysis; format: cell-based, human; details: full-length antigen used individually
Protocol: FIGS. 8A-8D. IFNγ/IL-22/IL-17 Fluorospot assay comparing T-cell activation in multiple sclerosis (MS)-patients and healthy controls when stimulated with full-length recombinant antigens (FABP7, PROK2, RTN3, SNAP91). Fifty-two Multiple Sclerosis patients and 24 healthy controls were tested for T-cell activation towards recombinant full-length versions of the autoantigens in a FluoroSpot assay. FIG. 8A: FABP7 isoform 2 (SEQ ID NO:1). FIG. 8B: PROK2 (SEQ ID NO:2). FIG. 8C: RTN3 SEQ ID NO:3. FIG. 8D: SNAP91 SEQ ID NO: 4. P-values calculated using Mann-Whitney test. Staples denote mean and C195%.
FIGS. 9A-9E. ROC-curves for the full-length antigens, Sensitivity and specificity when used as a diagnostic marker. Individually, the four antigens perform similarly as diagnostic markers for disease, all reaching a sensitivity of ˜50% with a specificity of 95%. FIG. 9A: FABP7 isoform 2. FIG. 9B: PROK2. FIG. 9C: RTN3. FIG. 9D: SNAP91. FIG. 9E: Using a combination of all four antigens as a diagnostic test achieves higher sensitivity and specificity. Specifically, utilizing the ratio of IL-17 divided by the square root of IFNγ response towards the mean response to the four antigens achieves a sensitivity of 70% with a specificity of >95%.
The full-length proteins can also be used in a similar way, see FIG. 9A-D. Utilizing all four full-length antigens, using each individual's average response to the four, increases the sensitivity and specificity further (FIG. 9E). Combining different readouts, such as analyzing the ratio between IL-17 and IFNγ, can increase the sensitivity of the test further (FIG. 9E, Table 2).
Recombinant full-length versions of the antigens FABP7 (SEQ ID NO: 1), PROK2 (SEQ ID NO: 2), RTN3 (SEQ ID NO: 3), SNAP91 (SEQ ID NO: 4) were produced in E. coli in house according to standard recombinant protein production protocols and purified via his-tag purification. 52 patients and 24 controls were tested for reactivity towards the antigens in an IFNγ/IL17/IL22 FluoroSpot assay as previously described.
A second, larger, cohort was collected in order to test the full length antigens. In this cohort, 52 patients and 24 healthy controls were included. The inclusion/exclusion criteria (table 5) as well as the sampling and PBMCs isolation were the same.
The antigens (FABP7, PROK2, RTN3 and SNAP91) picked out from the screening of PrESTs described in Example 1 and 2 were selected for further testing on the full-length versions of the protein. The full-length antigens were produced by transforming plasmids encoding the antigen and a […] into Escherichia coli. After growth, the bacteria were lysed and the protein purified from the supernatant of the bacterial lysis via 6× histidine-tag purification on an immobilized metal affinity chromatography-column. The antigens were subsequently coupled to beads and endotoxin-washed as previously described.
The FluoroSpot assay was performed under sterile conditions in a cell culture hood. The cells were thawed in a water bath at 37° C. and washed with cRPMI (RPMI 1640 medium, Sigma Aldrich, containing 10% fetal calf serum, 1% 200 mM L-Glutamine, 1% 10,000 U/ml Penicillin-10 mg/ml Streptomycin). The cells were counted manually using a light-microscope (Nikon TMS-F, Nikon, Japan) and subsequently diluted in cRPMI to a concentration of 2.5×10^6 cells/ml. The FluoroSpot plate (Human IFNγ/IL-22/IL-17A FluoroSpot kit, pre-coated, Mabtech, Sweden) was washed with PBS and then blocked with cRPMI for 30 min at room temperature. The blocking cRPMI was then discarded and 100 μl fresh cRPMI was added to each well of the FluoroSpot plate. Antigen (3×10^6 beads) was added to each well in duplicates according to a specific layout. In accordance to the manufacturer's protocol, anti-CD3 was used as a positive control. Both uncoupled beads and media without stimuli was used as negative controls. PBMCs (250,000 cells) in 100 μl cRPMI were added to each well (125,000 cells for the anti-CD3). […]

Molecule | sensitivity as diagnostic marker | specificity as diagnostic marker
B1 | ~50% | 95%
B2 | ~50% | 95%
B3 | ~50% | 95%
B4 | ~50% | 95%
